For orientation: AC50 means the midpoint of the concentration-response curve, whichever way the signal moves.

A short description of this assay: qHTS Assay to Find Inhibitors of Chronic Active B-Cell Receptor Signaling. The note with it: ABC-DLBCL IkBa-CBG/CBR reporter, luminescence ratio (green luciferase fused to IkBa over red control in TMD8 lymphoma cells), 4 h. In outline:
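Cell line TMD8 (human ABC DLBCL), stably expressing tet-inducible CBG68-IkBa fusion and CBR; IMDM/0.5% FBS; cpd up to 46 uM; dox induction, 4 h, 37C/5% CO2; dual luminescence; green/red ratio; MG132 control.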
A general note: qHTS replaces the single test concentration by a dilution series.

[1] abbreviates: measured here: CBR red luminescence, cell number.
The mark [2] stands for this setting: measured here: IkBa-CBG green luminescence.

SMILES strings stand for the structures. The list shows a part of the results. Further columns of the screen follow, without active or inactive calls. Most of these compounds were active or inconclusive in the main read-out, so they are no random draw. Potencies come from curve fits of mixed quality, noted in brackets.

In the case of `Cc1cc(C)n2nc(SCC3COc4ccccc4O3)nc2n1` (stereo unspecified), the AC50 under setting [1] is 2.51 µM [rising, partial curve, poor fit]. Still for that read-out and setting: the result for `Oc1ccc(/C=N/N2CCCCC2)cc1O` reads 0.316 µM [rising, full curve]; that for `Oc1ccccc1Nc1nc(NCc2ccco2)c2ccccc2n1`, 35.5 µM [falling, single point]; that for `CC(=O)Nc1ccc(S(=O)(=O)NCCSCc2c(Cl)cccc2Cl)cc1`, 35.5 µM [falling, single point]. Same read-out and setting: the result for `O=C(/C=C/c1ccco1)NC(=S)Nc1cccc([N+](=O)[O-])c1` reads 0.116 µM [rising, full curve, poor fit]; that for `Cc1ccc(NC(=O)c2c(Cl)n(C)c3ccccc23)cc1`, 35.5 µM [falling, single point]; that for `COc1ccc(C2=NN(C(=O)CCCC(=O)O)C(c3cccs3)C2)cc1OC` (stereo unspecified), 11.2 µM [rising, partial curve, poor fit].

Consider `CCOc1ccccc1NC1=C(Cl)C(=O)N(c2ccccc2)C1=O`, for which the half-maximal activity concentration (AC50) under setting [1] is 23.1 µM [falling, single point].

In the case of `C=CC[C@@H](CC(=O)N(CCO)Cc1ccccc1)C(=O)N[C@@H](COC(=O)[C@H](CC=C)CC(=O)OC(C)(C)C)Cc1c[nH]c2ccccc12`, under setting [1], the half-maximal activity concentration (AC50) was 20.6 µM [falling, partial curve, poor fit].

On to `Cc1ccc(CCN2CC(C(=O)NCCc3ccccc3)CC2=O)cc1` (stereo unspecified), for which the AC50 under setting [1] was 35.5 µM [rising, single point].

Consider `COc1cc(C)c(CN2CCN(S(=O)(=O)c3ccc(Cl)s3)CC2)cc1OC`, for which the AC50 under setting [1] is 6.51 µM [rising, single point]. The same measure, in the same setting: in the case of `COc1ccc(CCNC(=O)NCCc2c[nH]c3ccccc23)cc1OC` it was 35.5 µM [rising, single point]. Take `O=C(NC(=S)N1CCN(c2ccc(F)cc2)CC1)c1cccs1`: the half-maximal activity concentration (AC50) was 14.1 µM [rising, single point] under setting [1] and 10 µM [falling, partial curve, poor fit] under setting [2]. Turning to `Cc1cc(C(C)(C)C)oc1C(=O)N(CC(=O)NC1CCCC1)Cc1ccc(F)cc1`, the half-maximal activity concentration (AC50) under setting [1] was 1.3 µM [rising, full curve, poor fit]. Same read-out and setting: in the case of `CC(C(=O)N1CCCC1)c1ccc([N+](=O)[O-])cc1` (stereo unspecified) it was 22.4 µM [rising, single point]; in that of `CC(=O)c1cccc(S(=O)(=O)NCC(c2ccco2)N2CCCCC2)c1` (stereo unspecified), 22.4 µM [falling, partial curve, poor fit]; in that of `O=C(CCCN1C(=O)/C(=C/c2ccccc2Cl)SC1=S)NNC(=O)c1cccnc1`, 7.94 µM [falling, partial curve]. With `C/C(=N/NS(=O)(=O)c1ccc(Cl)cc1)c1cccc(NC(=O)c2ccc(Cl)cc2Cl)c1`, under setting [1], the half-maximal activity concentration (AC50) was 44.7 µM [falling, partial curve, poor fit]. Consider `C=Cc1cccc(NC(=O)COc2ccccc2)c1`, for which the AC50 under setting [1] was 6.51 µM [falling, single point] and the AC50 under setting [2] is 6.51 µM [rising, partial curve, poor fit]. Consider `CCOc1ccccc1/C=N/NC(=O)c1cc(C(C)C)[nH]n1`, for which the half-maximal activity concentration (AC50) under setting [1] was 3.16 µM [falling, partial curve, poor fit]. The same measure, in the same setting: in the case of `Cc1nnc(SCc2nc3ccccc3s2)n1N` it was 20 µM [rising, partial curve, poor fit]; in that of `CCOc1ccc(NC(=O)CC2Nc3ccccc3NC2=O)cc1` (stereo unspecified), 35.5 µM [rising, single point].

Regarding `O=C(Nc1ccccc1)c1nnsc1S(=O)c1ccc(Cl)cc1` (stereo unspecified), the AC50 runs as follows: under setting [1], 7.08 µM [falling, partial curve]; under setting [2], 11.2 µM [rising, partial curve, poor fit]. On to `CCCC1C(=O)Nc2ccccc2N1C(=O)c1ccc(C(C)(C)C)cc1` (stereo unspecified), for which, under setting [1], the half-maximal activity concentration (AC50) is 14.1 µM [falling, partial curve, poor fit].

`C/C(=N\NC(=O)c1c[nH]c2ccccc12)c1ccc(C)o1`: the concentration at half-maximal activity (AC50) under setting [1] is 8.2 µM [falling, partial curve, poor fit].

As for `N#Cc1c2n(c3c(=O)n(Cc4ccc(Cl)cc4)cnc13)CCCCC2`, the AC50 under setting [1] is 7.31 µM [rising, partial curve, poor fit]. The same measure, in the same setting: in the case of `N#CC1=C(N)N=C(SCc2ccccc2)C(C(N)=O)C12CCCCC2` (stereo unspecified) it was 6.51 µM [falling, single point]. On the same count and under the same terms, in the case of `COc1ccc(NC(=O)c2cccc3c2C(=O)c2ccc(-c4ccc(F)cc4OCc4ccccc4)cc2S3(=O)=O)cc1` it was 3.26 µM [rising, full curve]; in that of `O=C(NCc1ccccc1)c1ccc(Cl)c(S(=O)(=O)N2CCCC2)c1`, 20.6 µM [rising, single point]. Take `CC(=NCCCn1ccnc1)c1c(C)[nH]n(-c2ccc([N+](=O)[O-])cc2)c1=O`: the AC50 under setting [1] is 31.6 µM [falling, single point]. Same read-out and setting: the result for `CCOC(=O)c1sc(NC(=S)NC(=O)CC(C)C)cc1C` reads 0.794 µM [falling, partial curve]; that for `C/C(=N/NS(=O)(=O)c1ccccc1)c1ccc(NC(=O)C2CC2)cc1`, 11.2 µM [falling, single point]. Same read-out and setting: the result for `Cc1noc(C)c1C(=O)OCC(=O)Nc1cccc(S(N)(=O)=O)c1` reads 15.8 µM [falling, single point]. `CCOC(=O)c1c(C)[nH]c(C(=O)COC(=O)c2ccc(O)cc2)c1C`: the AC50 under setting [1] was 11.2 µM [falling, partial curve, poor fit]. Still for that read-out and setting: the result for `CCNC(=S)Nc1ccc(-c2nc3ccccc3[nH]2)cc1` reads 7.94 µM [falling, partial curve, poor fit]; that for `Cc1ccccc1CSCCNC(=O)CSCc1ccc([N+](=O)[O-])cc1`, 22.4 µM [falling, single point]; that for `O=C(O)c1cc(N/N=C/c2ccc(-c3ccc(F)cc3)o2)ccc1Cl`, 7.08 µM [falling, partial curve, poor fit]. On the same count and under the same terms, the result for `Cc1nn(-c2ccccc2)c(N2CCCC2)c1/C=N/NC(=O)c1cc2ccccc2cc1O` reads 16.4 µM [falling, partial curve, poor fit]. In the case of `O=C1CCCCc2sc(Br)c([N+](=O)[O-])c2N1`, the AC50 under setting [1] is 8.91 µM [falling, partial curve, poor fit] and the AC50 under setting [2] is 11.2 µM [rising, partial curve, poor fit]. Take `CCCCOc1ccc(CNC(=S)N/N=C/c2ccc(OC)c(OC)c2)cc1`: the concentration at half-maximal activity (AC50) under setting [1] was 3.66 µM [falling, single point].

With `CCCCCC(=O)N1CC2(C)CN(C(=O)CCCCC)CC(C)(C1)C2=O`, the AC50 under setting [1] was 29.1 µM [rising, single point]. In the case of `COC(=O)CSc1ccc(-c2nc3ccc(C)cc3[nH]2)cn1`, the AC50 under setting [1] is 18.4 µM [falling, partial curve]. Still for that read-out and setting: in the case of `COc1ccc(C2C(C(=O)c3sc(C)nc3C)=C(O)C(=O)N2CCN(C)C)cc1` (stereo unspecified) it was 7.31 µM [rising, single point]. For `CCC(=O)Oc1ccc2c(c1)OC1(OC(C)=O)OC(C)CC1=C2C` (stereo unspecified), under setting [1], the concentration at half-maximal activity (AC50) is 35.5 µM [rising, single point]. The same measure, in the same setting: in the case of `CCC[C@@H](O)c1cc2cc(OC)c(OC)cc2c(=O)o1` it was 14.6 µM [rising, partial curve, poor fit]; in that of `O=C(CCC(=O)c1cccs1)NCc1cccnc1`, 12.6 µM [rising, single point].

Turning to `CCN(CC)S(=O)(=O)c1cc(OC)c(Cl)cc1Cl`, the AC50 under setting [1] is 10.3 µM [rising, partial curve, poor fit]. Same read-out and setting: in the case of `CC(=O)Nc1ccc(S(=O)(=O)NC2(C(F)(F)F)NC(=O)N(C3CCCCC3)C2=O)cc1` (stereo unspecified) it was 13 µM [falling, partial curve, poor fit]; in that of `CC(=O)c1c(-c2ccc(C)cc2)nc2c3ccccc3ccn12`, 7.94 µM [rising, partial curve, poor fit]; in that of `COC(=O)c1sc(=S)n(-c2ccccc2)c1N`, 18.4 µM [rising, partial curve, poor fit]. With `Cc1nn(-c2ccccc2)c2nc(-c3ccncc3)cc(C(=O)NCc3ccco3)c12`, the AC50 under setting [1] was 15.8 µM [falling, partial curve, poor fit]. On to `COC(=O)c1ccccc1NC(=O)CSc1nc(Nc2ccccc2)nc(N2CCOCC2)n1`, for which the half-maximal activity concentration (AC50) under setting [1] was 7.08 µM [falling, full curve].

For the compound `Cc1cc(NC(=O)CSc2ncc(C(=O)Nc3ccc(Cl)cc3)c(=O)n2C)no1`, under setting [1], the half-maximal activity concentration (AC50) is 22.4 µM [falling, single point].

`Cc1sc(NC(=O)c2ccco2)nc1-c1ccc2c(c1)CC(C)N2C(=O)C1CC1` (stereo unspecified): the AC50 under setting [1] is 35.5 µM [falling, single point]. Still for that read-out and setting: in the case of `COc1cccc(-c2nnc(SC(C(=O)c3c[nH]c4ccccc34)c3ccccc3)n2C)c1` (stereo unspecified) it was 20.6 µM [falling, single point]; in that of `CCOc1ccc(NC(=O)c2ccccn2)cc1`, 3.66 µM [falling, partial curve]; in that of `Cc1ccc(Cl)cc1NC(=S)N1CCC(c2ccccc2)C1` (stereo unspecified), 35.5 µM [falling, single point]. On to `O=C(Cc1noc2ccccc12)NNC(=S)Nc1ccccc1`, for which the AC50 under setting [1] is 17.8 µM [falling, single point]. On the same count and under the same terms, in the case of `CCCn1cc(C(CC(=O)O)C(=O)O)c2ccccc21` (stereo unspecified) it was 29.1 µM [falling, single point]; in that of `COC(=O)COc1ccc(S(=O)(=O)Nc2ccc(NC(C)=O)cc2)cc1`, 35.5 µM [rising, single point]; in that of `Cc1cccc(N2C(=O)N3[C@@H]4c5ccccc5OC[C@@H]4[C@@H](c4ccccc4)[C@@]3(C)C2=O)c1`, 11.2 µM [falling, single point]. Still for that read-out and setting: in the case of `COc1ccc(-c2oc3ccccc3c2C(=O)Oc2ccccc2)cc1` it was 35.5 µM [rising, single point].

The values above are taken from PubChem BioAssay AID493014 (National Center for Advancing Translational Sciences (NCATS), 2011).
